Like-named read-outs stand apart in the source and are kept apart here.

Chains of the proteins cited; added tags and fusions are not shown. Lines headed by an entry give the natural chain unless they say otherwise; changes in a name come on top.
UniProt P10614: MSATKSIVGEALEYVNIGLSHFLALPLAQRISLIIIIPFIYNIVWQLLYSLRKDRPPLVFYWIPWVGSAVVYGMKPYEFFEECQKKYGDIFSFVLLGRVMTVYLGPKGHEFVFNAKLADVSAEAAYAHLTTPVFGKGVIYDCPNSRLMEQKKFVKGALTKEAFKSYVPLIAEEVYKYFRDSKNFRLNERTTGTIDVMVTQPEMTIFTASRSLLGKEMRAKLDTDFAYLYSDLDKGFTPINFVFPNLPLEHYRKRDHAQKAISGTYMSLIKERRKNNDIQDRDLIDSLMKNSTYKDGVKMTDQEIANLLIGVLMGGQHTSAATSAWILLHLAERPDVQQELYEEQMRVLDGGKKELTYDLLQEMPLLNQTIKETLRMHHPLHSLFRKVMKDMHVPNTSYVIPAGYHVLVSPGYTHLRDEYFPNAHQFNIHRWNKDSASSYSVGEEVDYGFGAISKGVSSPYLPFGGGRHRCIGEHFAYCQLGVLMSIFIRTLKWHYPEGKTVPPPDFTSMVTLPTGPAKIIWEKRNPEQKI

The test concerns the target Erg11p (Saccharomyces cerevisiae, UniProt P10614). To be noted: 25 target and 25,000 decoy cells (1:1000), 225 μl, 30° C., up to ten days.

Take `Clc1ccc(CSC(Cn2ccnc2)c2ccc(Cl)cc2Cl)cc1` (centres unmarked) [sulconazole]: the “fluorescent signal of co-culture versus no-drug treatment” value runs as follows: (0.5 μg/ml drug plus 0.1% DMSO) “significant positive signals”; (5 μg/ml drug plus 1% DMSO) “too severe a growth inhibition to produce positive signals”.

For the origin of these results see patent publication US6518035B1, “Targeted methods of drug screening using co-culture methods” (Rosetta Inpharmatics, Inc., priority 1998, dated 2003).
